# Results deposited as PubChem BioAssay AID1259254 (NCATS, 2017)
# Aim: 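Finding genes that stop cells copying their DNA twice in one cycle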 (primary screen)
# System: human HCT116 colorectal cancer cells
# Knock-down reagent: single siRNA against human genes
# Time to read-out: 3 days
# Read-out: 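Nuclei stained with Hoechst and imaged; cell-cycle phase assigned by DNA content; G2 share scaled per plate, non-targeting siRNA 0%, GMNN siRNA 100%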
# Reading the numbers: G2 robust z-score and G2 cells, % of GMNN control: higher = more G2 cells, more excess DNA replication
# Rule for the call: 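Active siRNAs have a G2 robust z of 5 or more median absolute deviations over the median, which in these data means about 38% or higher of GMNN control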
# Here is a random part of about 59,000 deposited reagents. In the full data, about 1,550 (2.6%) got an active call. 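G2 share is only a proxy for re-replication; each gene was hit by three separate siRNAs, and active genes were retested.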 The numbers tell different reagents against one gene apart. Further read-outs or replicates are left out here. Not given: the amount of reagent.
gene,reagent,G2 robust z-score,"G2 cells, % of GMNN control",Call
ST3GAL4,1,2.76,22.4,inactive
ST3GAL4,2,0.172,4.17,inactive
ST3GAL4,3,0.149,4.01,inactive
SP100,1,-1.34,-6.48,inactive
SP100,2,-1.77,-9.48,inactive
SP100,3,0.163,4.11,inactive
H3C12,1,-0.0358,2.72,inactive
H3C12,2,-0.94,-3.65,inactive
H3C12,3,4.17,32.3,inactive
SEC14L3,1,-0.561,-0.976,inactive
SEC14L3,2,-1.15,-5.13,inactive
SEC14L3,3,0.974,9.82,inactive
DCLK3,1,0.568,6.96,inactive
DCLK3,2,-0.538,-0.817,inactive
DCLK3,3,1.55,13.9,inactive
LMF1,1,-0.909,-3.43,inactive
LMF1,2,0.294,5.04,inactive
LMF1,3,1.24,11.7,inactive
NKAPL,1,0.468,6.26,inactive
NKAPL,2,2.69,21.9,inactive
NKAPL,3,0.547,6.82,inactive
CLINT1,1,-0.741,-2.24,inactive
CLINT1,2,-1.09,-4.73,inactive
CLINT1,3,-0.479,-0.4,inactive
PTPRE,1,1.22,11.6,inactive
PTPRE,2,-0.465,-0.306,inactive
PTPRE,3,-0.662,-1.69,inactive
NAPEPLD,1,-0.317,0.735,inactive
NAPEPLD,2,0.506,6.53,inactive
NAPEPLD,3,-0.11,2.19,inactive

Copied from above for reference:
gene,reagent,G2 robust z-score,"G2 cells, % of GMNN control",Call
SEC14L3,3,0.974,9.82,inactive
DCLK3,1,0.568,6.96,inactive
DCLK3,2,-0.538,-0.817,inactive
DCLK3,3,1.55,13.9,inactive
LMF1,1,-0.909,-3.43,inactive
LMF1,2,0.294,5.04,inactive
LMF1,3,1.24,11.7,inactive

Continued.
gene,reagent,G2 robust z-score,"G2 cells, % of GMNN control",Call
ADAMTS3,1,0.718,8.02,inactive
ADAMTS3,2,-0.139,1.99,inactive
ADAMTS3,3,-0.701,-1.96,inactive
DLG5,1,-1.26,-5.87,inactive
DLG5,2,0.893,9.25,inactive
DLG5,3,-0.25,1.21,inactive
SCML1,1,-0.591,-1.19,inactive
SCML1,2,0.0635,3.41,inactive
SCML1,3,0.915,9.4,inactive
RPS23P8,1,0.77,8.39,inactive
RPS23P8,2,1.08,10.5,inactive
RPS23P8,3,3.88,30.2,inactive
PROSER3,1,2.28,19,inactive
PROSER3,2,-0.324,0.686,inactive
PROSER3,3,0.00296,2.99,inactive
PRDM1,1,0.501,6.49,inactive
PRDM1,2,-0.285,0.961,inactive
PRDM1,3,0.644,7.5,inactive
